Laboratory results: patent US20100190693A1
These are yes or no findings as the source states them, for the method shown. In cells and extracts the contact can be indirect. A yes stands for co-enrichment or nearness to the bait. Other partners may have been found. Sequences can lack the tags named with a protein. Values belong to the binder of their own block, whether it stands above or below them.

Chains of the proteins cited; added tags and fusions are not shown.
UniProt P62258: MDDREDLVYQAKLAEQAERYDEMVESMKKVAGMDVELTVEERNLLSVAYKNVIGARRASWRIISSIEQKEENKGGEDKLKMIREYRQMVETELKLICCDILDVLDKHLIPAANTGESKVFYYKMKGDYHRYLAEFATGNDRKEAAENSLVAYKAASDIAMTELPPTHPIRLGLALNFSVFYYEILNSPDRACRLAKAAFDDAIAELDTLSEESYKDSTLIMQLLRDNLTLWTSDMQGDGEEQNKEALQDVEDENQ

Molecular target: 14-3-3ε (UniProt P62258)
Test: proteomic (mass spectrometry) analysis of Flag immunoprecipitates; coverage not tied to one TORC

- binding: binds
B1: Flag-tagged TORC2 (protein, UniProt Q53ET0 1-693, looked up, not shown: small tags and cut ends)
chain: MATSGANGPGSATASASNPRKFSEKIALQKQRQAEETAAFEEVMMDIGSTRLQAQKLRLAYTRSSHYGGSLPNVNQIGSGLAEFQSPLHSPLDSSRSTRHHGLVERVQRDPRRMVSPLRRYTRHIDSSPYSPAYLSPPPESSWRRTMAWGNFPAEKGQLFRLPSALNRTSSDSALHTSVMNPSPQDTYPGPTPPSILPSRRGGILDGEMDPKVPAIEENLLDDKHLLKPWDAKKLSSSSSRPRSCEVPGINIFPSPDQPANVPVLPPAMNTGGSLPDLTNLHFPPPLPTPLDPEETAYPSLSGGNSTSNLTHTMTHLGISRGMGLGPGYDAPGLHSPLSHPSLQSSLSNPNLQASLSSPQPQLQGSHSHPSLPASSLARHVLPTTSLGHPSLSAPALSSSSSSSSTSSPVLGAPSYPASTPGASPHHRRVPLSPLSLLAGPADARRSQQQLPKQFSPTMSPTLSSITQGVPLDTSKLSTDQRLPPYPYSSPSLVLPTQPHTPKSLQQPGLPSQSCSVQSSGGQPPGRQSHYGTPYPPGPSGHGQQSYHRPMSDFNLGNLEQFSMESPSASLVLDPPGFSEGPGFLGGEGPMGGPQDPHTFNHQNLTHCSRHGSGPNIILTGDSSPGFSKEIAAALAGVPGFEVSAAGLELGLGLEDELRMEPLGLEGLNMLSDPCALLPDPAVEESFRSDRLQ
modifications: phosphorylated in cells (Ser171 and other serines)

- binding: binds
B2: Flag-tagged TORC1 (protein, UniProt Q6UUV9 1-634, looked up, not shown: small tags and cut ends)
chain: MATSNNPRKFSEKIALHNQKQAEETAAFEEVMKDLSLTRAARLQLQKSQYLQLGPSRGQYYGGSLPNVNQIGSGTMDLPFQTPFQSSGLDTSRTTRHHGLVDRVYRERGRLGSPHRRPLSVDKHGRQADSCPYGTMYLSPPADTSWRRTNSDSALHQSTMTPTQPESFSSGSQDVHQKRVLLLTVPGMEETTSEADKNLSKQAWDTKKTGSRPKSCEVPGINIFPSADQENTTALIPATHNTGGSLPDLTNIHFPSPLPTPLDPEEPTFPALSSSSSTGNLAANLTHLGIGGAGQGMSTPGSSPQHRPAGVSPLSLSTEARRQQASPTLSPLSPITQAVAMDALSLEQQLPYAFFTQAGSQQPPPQPQPPPPPPPASQQPPPPPPPQAPVRLPPGGPLLPSASLTRGPQPPPLAVTVPSSLPQSPPENPGQPSMGIDIASAPALQQYRTSAGSPANQSPTSPVSNQGFSPGSSPQHTSTLGSVFGDAYYEQQMAARQANALSHQLEQFNMMENAISSSSLYSPGSTLNYSQAAMMGLTGSHGSLPDSQQLGYASHSGIPNIILTVTGESPPSLSKELTSSLAGVGDVSFDSDSQFPLDELKIDPLTLDGLHMLNDPDMVLADPATEDTFRMDRL
